The target in this assay is Flag-tagged Raptor (UniProt Q8N122). The assay is described as follows: affinity purification with mass spectrometry; mTORC1 complex immunopurified via Flag-tagged Raptor; anti-Flag immunoprecipitants analysed by mass spectrometry.

Sequences of proteins named here, by UniProt entry; tags and fusion partners are left off. A change or cut given only in a name is not applied to a line headed by its entry. A line that says so, or that is headed by a name, gives the form on record, which may keep a tag or linker.
UniProt Q8N122: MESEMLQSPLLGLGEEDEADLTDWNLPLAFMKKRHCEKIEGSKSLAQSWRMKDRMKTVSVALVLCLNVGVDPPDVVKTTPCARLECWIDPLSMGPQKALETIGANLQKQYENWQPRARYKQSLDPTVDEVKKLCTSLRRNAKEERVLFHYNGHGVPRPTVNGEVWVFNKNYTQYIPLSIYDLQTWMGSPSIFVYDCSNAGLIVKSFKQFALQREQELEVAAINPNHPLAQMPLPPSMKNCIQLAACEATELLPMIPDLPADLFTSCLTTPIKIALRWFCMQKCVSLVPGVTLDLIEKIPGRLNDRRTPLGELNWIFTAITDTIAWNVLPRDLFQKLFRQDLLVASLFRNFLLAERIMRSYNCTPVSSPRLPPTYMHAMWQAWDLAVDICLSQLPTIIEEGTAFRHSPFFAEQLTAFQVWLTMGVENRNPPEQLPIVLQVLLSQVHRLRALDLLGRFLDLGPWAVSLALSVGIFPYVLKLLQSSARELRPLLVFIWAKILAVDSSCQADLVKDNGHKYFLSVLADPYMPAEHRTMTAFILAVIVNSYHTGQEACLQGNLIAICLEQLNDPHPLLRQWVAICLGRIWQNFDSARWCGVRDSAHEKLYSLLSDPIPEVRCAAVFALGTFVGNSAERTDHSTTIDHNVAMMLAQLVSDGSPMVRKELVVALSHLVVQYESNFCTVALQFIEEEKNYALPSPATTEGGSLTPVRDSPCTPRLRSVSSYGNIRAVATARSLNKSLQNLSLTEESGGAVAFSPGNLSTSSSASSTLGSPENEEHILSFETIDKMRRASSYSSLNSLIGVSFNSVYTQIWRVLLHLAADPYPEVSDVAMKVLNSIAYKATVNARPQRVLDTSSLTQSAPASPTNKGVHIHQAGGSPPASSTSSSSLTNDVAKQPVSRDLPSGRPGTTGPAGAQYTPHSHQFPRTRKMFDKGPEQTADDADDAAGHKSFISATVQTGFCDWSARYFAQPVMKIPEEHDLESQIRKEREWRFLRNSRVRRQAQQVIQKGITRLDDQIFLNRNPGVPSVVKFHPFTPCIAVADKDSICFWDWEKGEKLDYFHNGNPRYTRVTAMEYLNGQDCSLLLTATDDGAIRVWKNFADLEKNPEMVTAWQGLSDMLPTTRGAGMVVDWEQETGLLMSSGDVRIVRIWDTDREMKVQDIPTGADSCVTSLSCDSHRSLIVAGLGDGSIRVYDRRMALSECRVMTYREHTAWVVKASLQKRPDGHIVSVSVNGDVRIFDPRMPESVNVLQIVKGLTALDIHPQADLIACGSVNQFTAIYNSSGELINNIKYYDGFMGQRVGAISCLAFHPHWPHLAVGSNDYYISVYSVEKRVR
UniProt P13861: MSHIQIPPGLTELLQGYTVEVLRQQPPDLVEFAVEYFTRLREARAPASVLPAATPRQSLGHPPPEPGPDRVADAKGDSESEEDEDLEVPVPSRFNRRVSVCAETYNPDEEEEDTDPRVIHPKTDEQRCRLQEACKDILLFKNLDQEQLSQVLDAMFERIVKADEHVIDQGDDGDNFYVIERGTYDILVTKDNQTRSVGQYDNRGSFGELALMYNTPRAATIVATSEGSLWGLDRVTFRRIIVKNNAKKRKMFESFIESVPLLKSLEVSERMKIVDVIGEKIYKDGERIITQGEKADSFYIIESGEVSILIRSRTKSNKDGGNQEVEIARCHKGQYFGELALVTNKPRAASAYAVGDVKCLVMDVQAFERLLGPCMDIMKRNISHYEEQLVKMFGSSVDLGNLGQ
AKAP13 (Q12802-2, form named): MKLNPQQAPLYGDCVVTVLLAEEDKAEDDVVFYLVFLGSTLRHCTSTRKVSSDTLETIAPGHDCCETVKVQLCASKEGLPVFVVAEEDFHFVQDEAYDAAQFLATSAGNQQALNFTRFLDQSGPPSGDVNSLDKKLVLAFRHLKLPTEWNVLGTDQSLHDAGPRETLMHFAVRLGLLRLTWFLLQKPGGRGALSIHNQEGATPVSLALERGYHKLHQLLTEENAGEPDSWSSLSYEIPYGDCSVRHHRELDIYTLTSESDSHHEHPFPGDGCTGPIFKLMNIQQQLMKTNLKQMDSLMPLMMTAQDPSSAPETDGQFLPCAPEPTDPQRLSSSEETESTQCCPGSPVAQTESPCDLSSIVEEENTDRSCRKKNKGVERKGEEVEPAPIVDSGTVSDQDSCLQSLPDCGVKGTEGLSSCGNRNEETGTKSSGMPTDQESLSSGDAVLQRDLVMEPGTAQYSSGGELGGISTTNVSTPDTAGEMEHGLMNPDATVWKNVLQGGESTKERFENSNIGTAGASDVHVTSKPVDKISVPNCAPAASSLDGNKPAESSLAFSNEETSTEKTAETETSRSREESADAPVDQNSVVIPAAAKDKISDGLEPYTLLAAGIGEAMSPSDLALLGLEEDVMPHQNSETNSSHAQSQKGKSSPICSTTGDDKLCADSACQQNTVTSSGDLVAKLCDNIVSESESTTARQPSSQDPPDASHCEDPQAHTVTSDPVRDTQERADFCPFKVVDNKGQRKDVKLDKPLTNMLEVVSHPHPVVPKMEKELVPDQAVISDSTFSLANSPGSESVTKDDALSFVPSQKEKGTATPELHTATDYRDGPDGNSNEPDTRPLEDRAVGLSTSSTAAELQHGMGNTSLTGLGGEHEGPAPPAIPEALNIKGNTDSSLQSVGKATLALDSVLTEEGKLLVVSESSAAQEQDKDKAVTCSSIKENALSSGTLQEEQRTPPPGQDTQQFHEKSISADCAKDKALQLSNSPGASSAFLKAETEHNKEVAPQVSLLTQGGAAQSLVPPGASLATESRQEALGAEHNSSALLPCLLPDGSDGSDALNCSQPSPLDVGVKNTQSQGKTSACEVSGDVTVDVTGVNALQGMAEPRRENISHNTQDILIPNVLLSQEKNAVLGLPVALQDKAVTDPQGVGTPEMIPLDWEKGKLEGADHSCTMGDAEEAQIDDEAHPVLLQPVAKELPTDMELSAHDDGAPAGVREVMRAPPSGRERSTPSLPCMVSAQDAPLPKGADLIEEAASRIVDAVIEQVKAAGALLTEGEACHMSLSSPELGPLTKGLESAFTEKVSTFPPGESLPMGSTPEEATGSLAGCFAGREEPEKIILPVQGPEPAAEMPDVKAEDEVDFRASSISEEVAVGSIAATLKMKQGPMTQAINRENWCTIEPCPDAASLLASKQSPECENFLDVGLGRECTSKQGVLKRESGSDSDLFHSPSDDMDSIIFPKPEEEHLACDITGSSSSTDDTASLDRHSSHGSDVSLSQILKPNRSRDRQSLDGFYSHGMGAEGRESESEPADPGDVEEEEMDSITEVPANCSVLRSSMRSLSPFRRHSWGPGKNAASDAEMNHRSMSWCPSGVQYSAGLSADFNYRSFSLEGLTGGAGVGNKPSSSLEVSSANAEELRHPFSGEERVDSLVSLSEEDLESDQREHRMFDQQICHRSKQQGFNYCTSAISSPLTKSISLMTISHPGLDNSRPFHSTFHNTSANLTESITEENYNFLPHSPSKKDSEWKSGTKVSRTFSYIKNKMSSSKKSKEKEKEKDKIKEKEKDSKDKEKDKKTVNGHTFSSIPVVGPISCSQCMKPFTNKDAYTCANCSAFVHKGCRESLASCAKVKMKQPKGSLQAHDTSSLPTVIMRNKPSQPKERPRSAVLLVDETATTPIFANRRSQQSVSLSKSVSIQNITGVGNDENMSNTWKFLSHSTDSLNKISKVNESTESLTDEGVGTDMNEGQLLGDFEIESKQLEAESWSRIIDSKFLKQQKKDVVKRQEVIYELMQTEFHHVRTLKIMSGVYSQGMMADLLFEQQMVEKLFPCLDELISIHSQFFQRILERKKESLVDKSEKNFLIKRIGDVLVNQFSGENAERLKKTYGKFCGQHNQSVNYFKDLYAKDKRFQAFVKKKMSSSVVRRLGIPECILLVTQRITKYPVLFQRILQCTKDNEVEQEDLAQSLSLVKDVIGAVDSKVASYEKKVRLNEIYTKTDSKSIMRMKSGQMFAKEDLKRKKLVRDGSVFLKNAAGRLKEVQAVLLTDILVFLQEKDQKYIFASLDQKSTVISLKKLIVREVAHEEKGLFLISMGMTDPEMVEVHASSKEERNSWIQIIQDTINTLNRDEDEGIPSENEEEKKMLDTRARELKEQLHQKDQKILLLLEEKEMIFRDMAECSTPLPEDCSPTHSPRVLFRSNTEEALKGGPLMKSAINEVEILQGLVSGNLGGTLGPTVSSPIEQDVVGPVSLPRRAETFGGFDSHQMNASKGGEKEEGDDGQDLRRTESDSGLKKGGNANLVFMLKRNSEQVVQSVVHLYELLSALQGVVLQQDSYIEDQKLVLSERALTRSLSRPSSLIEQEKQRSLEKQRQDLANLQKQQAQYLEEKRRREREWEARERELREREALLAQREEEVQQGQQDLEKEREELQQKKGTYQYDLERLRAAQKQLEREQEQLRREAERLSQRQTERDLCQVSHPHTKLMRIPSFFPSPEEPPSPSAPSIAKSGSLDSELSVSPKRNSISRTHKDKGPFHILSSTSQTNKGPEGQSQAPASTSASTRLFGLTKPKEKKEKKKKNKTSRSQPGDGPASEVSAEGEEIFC

No constants are given. Whether binding was seen depends on the method and setting. In cells and extracts the contact can be indirect. These calls come from enrichment with a bait or labelling near it, and not all partners need be listed.

“PKA regulatory subunit IIα (from UniProt P13861 1-404)”: the binding result is on record as “binds”.
The entry for AKAP13 (from UniProt Q12802-2 1-2817) is “binds”.
